The values are deposited in ChEMBL (CHEMBL3988442, “University of Dundee, Small-Polar-MMV Screening Library” (2021)).

The chains behind the UniProt entries cited, without tags or fusion partners.
UniProt E9BF75, entry or part of it: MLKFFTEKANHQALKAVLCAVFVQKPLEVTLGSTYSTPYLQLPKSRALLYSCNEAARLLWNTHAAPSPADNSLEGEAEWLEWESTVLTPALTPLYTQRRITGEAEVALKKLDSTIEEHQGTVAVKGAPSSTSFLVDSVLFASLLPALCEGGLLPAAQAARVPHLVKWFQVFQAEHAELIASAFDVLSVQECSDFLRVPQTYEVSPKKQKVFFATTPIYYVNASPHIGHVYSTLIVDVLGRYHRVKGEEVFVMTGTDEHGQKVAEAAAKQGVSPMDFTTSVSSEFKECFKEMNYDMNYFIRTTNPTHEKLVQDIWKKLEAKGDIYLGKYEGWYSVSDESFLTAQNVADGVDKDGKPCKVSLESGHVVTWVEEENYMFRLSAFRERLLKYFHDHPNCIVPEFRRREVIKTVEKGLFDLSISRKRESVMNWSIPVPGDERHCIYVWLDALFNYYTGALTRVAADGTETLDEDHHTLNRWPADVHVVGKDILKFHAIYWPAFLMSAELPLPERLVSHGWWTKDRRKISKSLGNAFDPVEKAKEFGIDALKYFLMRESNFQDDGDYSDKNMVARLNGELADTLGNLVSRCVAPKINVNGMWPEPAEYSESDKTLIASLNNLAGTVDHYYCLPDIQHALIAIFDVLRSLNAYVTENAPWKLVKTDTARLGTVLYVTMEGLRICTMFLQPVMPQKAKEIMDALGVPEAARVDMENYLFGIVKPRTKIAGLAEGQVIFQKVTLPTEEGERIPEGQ

Results are percentages, as filed. The record does not define 0% and 100%; most values in the screen are far below 50% and negative numbers occur (in some assays of this library far below -100). Compounds were drawn at random from those tested, without regard to their results. A dash means the value is not listed here; it may have been measured.

LdMetRS: 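Primary screen of methionyl-tRNA synthetase; the read-out is not stated. Target: Methionyl-tRNA synthetase (putative), Leishmania donovani (UniProt E9BF75). The test concentration is not given. Values are per cent inhibition. Size under these conditions: about 68,000 compounds, about 24 of them at 50% or above in at least one test.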
Mtb heat-shock: 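Assay on Mycobacterium tuberculosis, filed only as a heat shock assay from Cornell; the read-out is not stated. The concentration is filed as 10 mM, unlikely as a test dose, so the dose is not known. Direction is inferred from retests: higher values go with stronger inhibition. Size under these conditions: about 69,000 compounds, about 930 of them at 50% or above in at least one test.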

Compound,LdMetRS,Mtb heat-shock
c1c[nH]c2nc(C3CCCNC3)nc-2c1 (stereo not given),9.143%,-20.62%
Fc1cnccc1CN1CCC2(CCN2c2ncccn2)C1 (stereo not given),7.904%,-
CNC(=O)C1(Cc2cc(C(C)C)no2)CCN(Cc2cccnc2)C1 (stereo not given),17.81%,15.26%
O=C(O)C(F)(F)F.c1cc(-c2ccc3c(c2)CCC32CCN(c3nncs3)CC2)ccn1,-,-23.12%
CN(C)c1ncccc1CNC(=O)NCc1ccco1,16.72%,9.191%
O=C(NCCn1ccnc1)c1cncc(Br)c1,6.738%,10.64%
Cn1ccnc1CN1CCC2(CC(=O)N(c3ccc4c(c3)OCO4)C2)C1 (stereo not given),15.93%,-
O=C(Nc1ccc2c(c1)C(=O)NC2)c1ccc(S(=O)(=O)C(F)(F)F)cc1,17.61%,6.038%
Cc1ccnn1CC(=O)N1CCCN(C2Cc3ccccc3C2)CC1,11.34%,-0.5622%
Cc1nc(C(C)C)sc1C(=O)NCCSc1ccccn1,9.353%,6.309%
CN(C)C(=O)C1CCN(C2CCN(CC3CCC3)CC2)CC1.O=C(O)C(F)(F)F.O=C(O)C(F)(F)F,-,5.992%
CC1CN(C(=O)c2sccc2Br)CCO1 (stereo not given),6.593%,-7.076%
O=C(c1ccc(O)cc1)N1C[C@@H]2CCN(c3cccnc3)C[C@@H]2C1,4.762%,-
O=C(COCC(F)(F)C(F)F)N1CCC2(CCCN(CCO)C2=O)C1 (stereo not given),12.32%,16.24%
CNc1cncc(C2CCCN2Cc2ccnc(N3CCCC3)n2)n1 (stereo not given),6.353%,-16.61%
[H][C@@]12C[C@@H](Oc3cccnc3)CN1CCN(C(=O)c1cccn1C)C2,-,-34.74%
CN(CC(=O)NC1CCOCC1)C1CCCN(c2cccnn2)C1 (stereo not given),12.57%,-10.38%
Cc1cc(C)n(CC2CCCN2CC(=O)N(C)Cc2cnn(C)c2)n1 (stereo not given),9.804%,12.63%
Cc1ccc(CN2Cc3nnn(C)c3C(COCc3ccccc3)C2)s1.O=C(O)C(F)(F)F (stereo not given),-,-0.277%
CCc1cc(C(=O)N2CCCC2c2nc(C)c(F)c(O)n2)on1 (stereo not given),5.944%,-17.06%
Cc1nc(CN2CCN(CCCc3ccccc3)CC2)no1,7.581%,-38.92%
COc1ccc(CNC(=O)N2CCN(CC(O)C3CC3)CC2)cc1.Cl (stereo not given),-,14.41%
CNC(=O)NC(=O)CN1CCCN(CC(F)(F)F)CC1,19.24%,-3.479%
CCCN(C(=O)CN1CCN(CCO)CC1)C1=CCCCC1,11.78%,-17.88%
Cc1ccc(NCc2cn3c(n2)CN(Cc2ccoc2)CC3)nn1.O=C(O)C(F)(F)F.O=C(O)C(F)(F)F,-,-10.58%
CC(C)Nc1nc2c(c(NC3CC3)n1)CN(C(=O)c1ccnnc1)CC2,6.522%,-15.53%
O=C1NCC2(CCCN(C(=O)c3c[nH]nc3-c3cccs3)C2)O1 (stereo not given),10.53%,23.8%
Cc1nc(C)n(CC2CCCCN2c2ncnc3ccsc23)n1 (stereo not given),20.51%,-3.252%
C=Cc1cccc(CN2C[C@@H](CN(C)CC)[C@@H](CO)C2)c1,8.04%,-30.63%
COc1ccc(F)cc1C[S+]([O-])CC(=O)NCc1ccccc1 (stereo not given),3.958%,6.986%
O=C(NCCc1nnc2n1CCCCC2)N1CCC2(CCOC2)C1 (stereo not given),8.974%,1.688%
Cc1noc(C)c1C(C)NC(=O)N1CCC(NC(=O)c2ccsc2)CC1 (stereo not given),5.108%,-22.37%
O=C(NCCn1ccnc1-c1cc2n(n1)CCCNC2)c1ccncc1,16.72%,-34.51%
Cn1nccc1C(=O)N1CCCN(CCCc2ccccc2)CC1,19.86%,-4.311%
Cc1ccc(C(=O)N2C[C@@H]3CN(c4ncccn4)C[C@@H]3C2)cn1,13.78%,-
Fc1ccc(CN2CCCC(c3cc4ncccc4[nH]3)C2)cc1 (stereo not given),13.71%,-9.723%
N#Cc1csc(CNCCOc2ncccc2Cl)c1,1.083%,-17.3%
CC(C)C(NC(=O)c1ccco1)C(=O)N1CCC2(CC1)OCCO2 (stereo not given),8.377%,0.4019%
CC(C)N(C)[C@@H]1CCN(C(=O)c2ccc[nH]2)[C@H]1Cc1cnn(C)c1,19.78%,-1.95%
Cc1cccc(CN2CCn3c(C(=O)N(C)C)cnc3C2)c1,13.93%,5.172%
CC(NCc1cnc(N2CCOCC2)nc1)c1ccc(Cl)s1 (stereo not given),8.123%,-
COc1cc(C2C3=C(COC3=O)Nc3[nH]nc(C)c32)cc2c1OCO2 (stereo not given),-0.7792%,8.716%
O=C(Cc1ccc(F)c(F)c1)NC1COc2ccccc2C1=O (stereo not given),4.83%,8.475%
[H][C@]12CCN(S(=O)(=O)c3ccc(C)cc3)[C@@]1([H])[C@@H](NC(=O)c1[nH]ncc1Br)C2,-,-0.1484%
O=C(c1cccc2ccnn12)N1CCC[C@H]1CN1CCCC1,3.672%,-30.73%
CCC(C)NS(=O)(=O)Cc1cccc(NC(=O)c2ccc[nH]2)c1 (stereo not given),11.08%,17.79%
Cc1nc(N2CCN(C(=O)c3ccccc3)CC2)cc(-n2ccnc2)n1,0.2597%,-9.381%
[H][C@]12CCCCN1CCC[C@H]2CNC(=O)Cn1ccc2cc(C)ccc21,-,16.2%
OCCCN1CCCC1c1nc(Cc2ccc(F)cc2)no1 (stereo not given),8.967%,4.24%
Cc1nnsc1C(=O)NCc1cccnc1N1CCCC(O)C1 (stereo not given),7.988%,7.824%
CCN(Cc1c(C)nn(CC)c1C)S(=O)(=O)c1cnn(C)c1,13.88%,4.576%
CC[C@H](C)Nc1ncc(-c2ccn(C3CCN(C(C)=O)CC3)n2)cn1,11.89%,-18.65%
CN(CCc1ccncc1)Cc1nccn1Cc1ccccc1,7.229%,9.887%
O=C(Nc1ccc(N2CCOCC2)nc1)N1CCc2sccc2C1,-,-9.044%
O=C(CC1CCCC1)N1CCCC1c1nc(O)cc(-c2ccccn2)n1 (stereo not given),16.1%,-5.518%
CCOC(=O)[C@H]1[C@@H](O)C(=O)N(C)C12CCN(C(=O)OCC)CC2,8.919%,-1.327%
Cc1cnn(CC(C)NCc2csc(-c3ccco3)n2)c1 (stereo not given),15.28%,29.87%

Once more, the final 5:

Compound	LdMetRS	Mtb heat-shock
CN(CCc1ccncc1)Cc1nccn1Cc1ccccc1	7.229%	9.887%
O=C(Nc1ccc(N2CCOCC2)nc1)N1CCc2sccc2C1	-	-9.044%
O=C(CC1CCCC1)N1CCCC1c1nc(O)cc(-c2ccccn2)n1 (stereo not given)	16.1%	-5.518%
CCOC(=O)[C@H]1[C@@H](O)C(=O)N(C)C12CCN(C(=O)OCC)CC2	8.919%	-1.327%
Cc1cnn(CC(C)NCc2csc(-c3ccco3)n2)c1 (stereo not given)	15.28%	29.87%